Test results: paper PMC4725338
These are yes or no findings as the source states them, for the method shown. In cells and extracts the contact can be indirect. Some results given as binding are weak or reduced against the parent protein; the word gives no strength. Sequences can lack the tags named with a protein.

Protein sequences, listed by entry. Tags and fused reporters are not part of them. Lines headed by an entry give the natural chain unless they say otherwise; changes in a name come on top.
UniProt P05556: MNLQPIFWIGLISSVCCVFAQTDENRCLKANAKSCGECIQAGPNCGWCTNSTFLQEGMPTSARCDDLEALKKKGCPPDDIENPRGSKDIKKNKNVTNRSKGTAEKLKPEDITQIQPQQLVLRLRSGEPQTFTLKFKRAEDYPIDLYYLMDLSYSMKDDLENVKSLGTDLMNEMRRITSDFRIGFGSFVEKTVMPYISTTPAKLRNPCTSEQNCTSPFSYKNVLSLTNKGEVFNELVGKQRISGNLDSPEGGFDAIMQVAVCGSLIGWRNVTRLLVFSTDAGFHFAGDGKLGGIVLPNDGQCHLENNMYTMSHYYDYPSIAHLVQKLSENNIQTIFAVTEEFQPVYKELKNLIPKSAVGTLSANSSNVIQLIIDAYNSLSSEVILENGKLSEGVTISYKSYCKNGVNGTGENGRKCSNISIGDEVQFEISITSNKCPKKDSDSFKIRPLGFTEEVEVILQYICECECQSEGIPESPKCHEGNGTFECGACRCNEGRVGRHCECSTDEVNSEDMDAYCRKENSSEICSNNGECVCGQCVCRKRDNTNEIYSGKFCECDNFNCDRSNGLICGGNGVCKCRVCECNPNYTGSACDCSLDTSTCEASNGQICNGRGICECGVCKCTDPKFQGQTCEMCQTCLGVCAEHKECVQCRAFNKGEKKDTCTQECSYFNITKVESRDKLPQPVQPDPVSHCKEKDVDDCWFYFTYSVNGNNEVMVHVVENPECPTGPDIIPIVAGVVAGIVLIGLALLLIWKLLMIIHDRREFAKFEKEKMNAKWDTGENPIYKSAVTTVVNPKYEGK

Target: T1, His-Myc-tagged Crim1-FL (full-length mouse cysteine-rich motor neuron 1) (mouse) (UniProt Q9JLL0)
T1 sequence: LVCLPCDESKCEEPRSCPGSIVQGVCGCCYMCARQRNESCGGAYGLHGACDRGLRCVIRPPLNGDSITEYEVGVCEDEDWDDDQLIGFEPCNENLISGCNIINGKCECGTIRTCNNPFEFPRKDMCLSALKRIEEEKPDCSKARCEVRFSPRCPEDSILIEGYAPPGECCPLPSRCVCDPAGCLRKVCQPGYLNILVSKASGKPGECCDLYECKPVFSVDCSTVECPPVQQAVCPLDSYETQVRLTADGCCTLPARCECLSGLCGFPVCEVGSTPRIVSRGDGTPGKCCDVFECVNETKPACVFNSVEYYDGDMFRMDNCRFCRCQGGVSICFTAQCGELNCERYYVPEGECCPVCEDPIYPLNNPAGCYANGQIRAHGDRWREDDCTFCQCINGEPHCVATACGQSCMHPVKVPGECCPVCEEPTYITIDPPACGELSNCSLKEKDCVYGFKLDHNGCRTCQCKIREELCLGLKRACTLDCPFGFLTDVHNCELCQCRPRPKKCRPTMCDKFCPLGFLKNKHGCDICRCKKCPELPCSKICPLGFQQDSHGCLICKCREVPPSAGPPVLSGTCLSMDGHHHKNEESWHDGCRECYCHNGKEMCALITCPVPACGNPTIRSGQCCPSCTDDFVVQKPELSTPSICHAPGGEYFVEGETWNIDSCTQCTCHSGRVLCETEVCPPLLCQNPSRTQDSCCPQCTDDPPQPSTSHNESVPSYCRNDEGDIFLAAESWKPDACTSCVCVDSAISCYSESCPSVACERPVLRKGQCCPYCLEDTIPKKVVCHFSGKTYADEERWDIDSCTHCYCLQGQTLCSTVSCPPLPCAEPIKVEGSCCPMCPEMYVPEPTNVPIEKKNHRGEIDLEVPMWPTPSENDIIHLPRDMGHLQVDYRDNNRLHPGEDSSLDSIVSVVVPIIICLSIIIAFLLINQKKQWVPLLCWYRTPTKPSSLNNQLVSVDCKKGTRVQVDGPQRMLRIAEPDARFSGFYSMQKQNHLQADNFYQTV
Experiment: co-IP; C-terminal His- and Myc-tagged mouse Crim1 expressed in HEK 293T cells for 48 h; lysate (50 mM NaH2PO4, 300 mM NaCl, 10 mM imidazole, 0.5% Triton X-100, pH 8.0) incubated with Ni-NTA resin at 4°C for 2 h to precipitate His-Myc-Crim1; blotted with anti-Myc or anti-β1 integrin; empty vector as negative control

binding: binds
Substance: β1 integrin (from UniProt P05556 21-798) (receptor)
